# Source: the supplement of paper PMC8728848
# The list shows a part of the results.
# How the values were obtained:
# Experiment in all cases: glycan array binding signal (z-score within array); higher = stronger binding
# Settings in all cases: glycan notation: IUPAC condensed, linker removed
# [1] = target: Gal(b1-3)GlcNAc(b1-3)Gal(b1-3)GlcNAc
# Procedure, shortened: (§1)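 Glycan array data were curated from 3228 arrays in the Consortium for Functional Glycomics database and kept only where the protein sequence was available. Glycan names were converted to IUPAC-condensed notation, and columns mapping to the same glycan were averaged. The binding signal is a within-array Z-score, averaged across arrays of the same protein sequence at different concentrations or buffers and across linkers. Negative Z-scores can be read as non-binding.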
# [2] = target: Gal(b1-3)GlcNAc(b1-3)Gal(b1-4)Glc
# Procedure, shortened: as §1
# [3] = target: Gal(b1-3)GlcNAc(b1-3)Gal(b1-4)GlcNAc
# Procedure, shortened: as §1
# [4] = target: Gal(b1-3)GlcNAc(b1-3)Gal(b1-4)GlcNAc(b1-2)Man(a1-3)[Gal(b1-3)GlcNAc(b1-3)Gal(b1-4)GlcNAc(b1-2)Man(a1-6)]Man(b1-4)GlcNAc(b1-4)GlcNAc
# Procedure, shortened: as §1
# [5] = target: Gal(b1-3)GlcNAc(b1-3)Gal(b1-4)GlcNAc(b1-2)[Gal(b1-3)GlcNAc(b1-3)Gal(b1-4)GlcNAc(b1-6)]Man(a1-6)[Gal(b1-3)GlcNAc(b1-3)Gal(b1-4)GlcNAc(b1-2)Man(a1-3)]Man(b1-4)GlcNAc(b1-4)[Fuc(a1-6)]GlcNAc
# Procedure, shortened: as §1
# [6] = target: Gal(b1-3)GlcNAc(b1-3)Gal(b1-4)GlcNAc(b1-3)Gal(b1-4)GlcNAc(b1-2)[Gal(b1-3)GlcNAc(b1-3)Gal(b1-4)GlcNAc(b1-3)Gal(b1-4)GlcNAc(b1-6)]Man(a1-6)[Gal(b1-3)GlcNAc(b1-3)Gal(b1-4)GlcNAc(b1-3)Gal(b1-4)GlcNAc(b1-2)Man(a1-3)]Man(b1-4)GlcNAc(b1-4)[Fuc(a1-6)]GlcNAc
# Procedure, shortened: as §1
# [7] = target: Gal(b1-3)GlcNAc(b1-3)Gal(b1-4)GlcNAc(b1-6)[Gal(b1-3)GlcNAc(b1-3)]Gal(b1-4)Glc
# Procedure, shortened: as §1
# [8] = target: Gal(b1-3)GlcNAc(b1-3)Gal(b1-4)[Fuc(a1-3)]GlcNAc
# Procedure, shortened: as §1
# [9] = target: Gal(b1-3)GlcNAc(b1-3)Gal(b1-4)[Fuc(a1-3)]GlcNAc(b1-6)[Gal(b1-3)GlcNAc(b1-3)]Gal(b1-4)Glc
# Procedure, shortened: as §1
# [10] = target: Gal(b1-3)GlcNAc(b1-3)GalNAc
# Procedure, shortened: as §1
# [11] = target: Gal(b1-3)GlcNAc(b1-6)Gal(b1-4)GlcNAc
# Procedure, shortened: as §1
# [12] = target: Gal(b1-3)GlcNAc(b1-6)GalNAc
# Procedure, shortened: as §1
# [13] = target: Gal(b1-3)GlcNAc(b1-6)[Gal(b1-3)]GalNAc
# Procedure, shortened: as §1
# [14] = target: Gal(b1-3)GlcNAc6S
# Procedure, shortened: as §1
# [15] = target: Gal(b1-3)[Fuc(a1-4)]GlcNAc
# Procedure, shortened: as §1
# [16] = target: Gal(b1-3)[Fuc(a1-4)]GlcNAc(b1-2)Man
# Procedure, shortened: as §1
# [17] = target: Gal(b1-3)[Fuc(a1-4)]GlcNAc(b1-2)Man(a1-3)[Gal(b1-3)[Fuc(a1-4)]GlcNAc(b1-2)Man(a1-6)]Man(b1-4)GlcNAc(b1-4)GlcNAc
# Procedure, shortened: as §1
# [18] = target: Gal(b1-3)[Fuc(a1-4)]GlcNAc(b1-2)Man(a1-3)[Gal(b1-3)[Fuc(a1-4)]GlcNAc(b1-2)Man(a1-6)]Man(b1-4)GlcNAc(b1-4)[Fuc(a1-6)]GlcNAc
# Procedure, shortened: as §1
# [19] = target: Gal(b1-3)[Fuc(a1-4)]GlcNAc(b1-3)Gal(b1-3)[Fuc(a1-4)]GlcNAc
# Procedure, shortened: as §1
# [20] = target: Gal(b1-3)[Fuc(a1-4)]GlcNAc(b1-3)Gal(b1-4)GlcNAc
# Procedure, shortened: as §1
# [21] = target: Gal(b1-3)[Fuc(a1-4)]GlcNAc(b1-3)Gal(b1-4)[Fuc(a1-3)]GlcNAc
# Procedure, shortened: as §1
# [22] = target: Gal(b1-3)[Fuc(a1-4)]GlcNAc(b1-6)GalNAc
# Procedure, shortened: as §1
# [23] = target: Gal(b1-3)[GlcNAc(b1-6)]GalNAc
# Procedure, shortened: as §1
# [24] = target: Gal(b1-3)[Neu5Ac(a2-6)]GalNAc
# Procedure, shortened: as §1
# [25] = target: Gal(b1-3)[Neu5Ac(a2-6)]GlcNAc(b1-4)Gal(b1-4)Glc
# Procedure, shortened: as §1
# [26] = target: Gal(b1-3)[Neu5Ac(a2-6)]GlcNAc(b1-6)Gal(b1-4)Glc
# Procedure, shortened: as §1
# [27] = target: Gal(b1-3)[Neu5Ac(b2-6)]GalNAc
# Procedure, shortened: as §1
# [28] = target: Gal(b1-4)Gal
# Procedure, shortened: as §1
# [29] = target: Gal(b1-4)GalNAc(a1-3)[Fuc(a1-2)]Gal(b1-4)GlcNAc
# Procedure, shortened: as §1
# [30] = target: Gal(b1-4)GalNAc(b1-3)[Fuc(a1-2)]Gal(b1-4)GlcNAc
# Procedure, shortened: as §1
# [31] = target: Gal(b1-4)Glc
# Procedure, shortened: as §1
# [32] = target: Gal(b1-4)Glc6S
# Procedure, shortened: as §1
# [33] = target: Gal(b1-4)GlcNAc
# Procedure, shortened: as §1
# [34] = target: Gal(b1-4)GlcNAc(a1-6)Gal(b1-4)GlcNAc
# Procedure, shortened: as §1
# [35] = target: Gal(b1-4)GlcNAc(b1-2)Man
# Procedure, shortened: as §1
# [36] = target: Gal(b1-4)GlcNAc(b1-2)Man(a1-3)Man(b1-4)GlcNAc(b1-4)GlcNAc
# Procedure, shortened: as §1
# [37] = target: Gal(b1-4)GlcNAc(b1-2)Man(a1-3)[Gal(b1-4)GlcNAc(b1-2)Man(a1-6)]Man(b1-4)GlcNAc(b1-4)GlcNAc
# Procedure, shortened: as §1
# [38] = target: Gal(b1-4)GlcNAc(b1-2)Man(a1-3)[Gal(b1-4)GlcNAc(b1-2)Man(a1-6)]Man(b1-4)GlcNAc(b1-4)[Fuc(a1-6)]GlcNAc
# Procedure, shortened: as §1
# [39] = target: Gal(b1-4)GlcNAc(b1-2)Man(a1-3)[Gal(b1-4)GlcNAc(b1-2)Man(a1-6)][Gal(b1-4)GlcNAc(b1-4)]Man(b1-4)GlcNAc(b1-4)[Fuc(a1-6)]GlcNAc
# Procedure, shortened: as §1
# [40] = target: Gal(b1-4)GlcNAc(b1-2)Man(a1-3)[Gal(b1-4)GlcNAc(b1-2)Man(a1-6)][GlcNAc(b1-4)]Man(b1-4)GlcNAc(b1-4)[Fuc(a1-6)]GlcNAc
# Procedure, shortened: as §1
# [41] = target: Gal(b1-4)GlcNAc(b1-2)Man(a1-3)[GlcNAc(b1-2)Man(a1-6)]Man(b1-4)GlcNAc(b1-4)GlcNAc
# Procedure, shortened: as §1
# [42] = target: Gal(b1-4)GlcNAc(b1-2)Man(a1-3)[GlcNAc(b1-4)][Gal(b1-4)GlcNAc(b1-2)Man(a1-6)]Man(b1-4)GlcNAc(b1-4)GlcNAc
# Procedure, shortened: as §1
# [43] = target: Gal(b1-4)GlcNAc(b1-2)Man(a1-3)[Man(a1-6)]Man(b1-4)GlcNAc(b1-4)GlcNAc
# Procedure, shortened: as §1
# [44] = target: Gal(b1-4)GlcNAc(b1-2)Man(a1-6)Man(b1-4)GlcNAc(b1-4)GlcNAc
# Procedure, shortened: as §1
# [45] = target: Gal(b1-4)GlcNAc(b1-2)Man(a1-6)[GlcNAc(b1-2)Man(a1-3)]Man(b1-4)GlcNAc(b1-4)GlcNAc
# Procedure, shortened: as §1
binder,measurement,setting,value
"BabA (Helicobacter pylori), O52269_HELPY (protein) AEDDGFYMSAGYQIGEAAQMVKNTKGIQELSDNYENLSNLLTRYSTLNTLIKLSADPSAVNAARENLGASAKNLIGDTKNSPAYQAVLLAINAAVGFWNVVGYVTQCGGNANGQKSTSSTTIFNNEPGYRSTSITCSLNGHMPGYYGPMSIENFKKLNEAYQILQTALKNGLPALKENNGTVNVTYSYTCSGEGNDNCSLQTTGVTNQNNGTKTETQTIDGKSVTTTISSKVVDSQ",glycan array binding signal (z-score),[1],-0.389
same,glycan array binding signal (z-score),[2],-0.912
same,glycan array binding signal (z-score),[3],-0.811
same,glycan array binding signal (z-score),[4],0.335
same,glycan array binding signal (z-score),[5],1.52
same,glycan array binding signal (z-score),[6],1.58
same,glycan array binding signal (z-score),[7],-0.337
same,glycan array binding signal (z-score),[8],-0.182
same,glycan array binding signal (z-score),[9],-0.446
same,glycan array binding signal (z-score),[10],-0.727
same,glycan array binding signal (z-score),[11],-0.528
same,glycan array binding signal (z-score),[12],-0.537
same,glycan array binding signal (z-score),[13],-0.573
same,glycan array binding signal (z-score),[14],-0.709
same,glycan array binding signal (z-score),[15],-0.25
same,glycan array binding signal (z-score),[16],0.363
same,glycan array binding signal (z-score),[17],-0.759
same,glycan array binding signal (z-score),[18],1.12
same,glycan array binding signal (z-score),[19],0.038
same,glycan array binding signal (z-score),[20],-0.022
same,glycan array binding signal (z-score),[21],-0.378
same,glycan array binding signal (z-score),[22],0.145
same,glycan array binding signal (z-score),[23],-0.524
same,glycan array binding signal (z-score),[24],-0.4
same,glycan array binding signal (z-score),[25],-0.691
same,glycan array binding signal (z-score),[26],0.167
same,glycan array binding signal (z-score),[27],-1.02
same,glycan array binding signal (z-score),[28],-0.682
same,glycan array binding signal (z-score),[29],-0.217
same,glycan array binding signal (z-score),[30],-0.983
same,glycan array binding signal (z-score),[31],0.225
same,glycan array binding signal (z-score),[32],-0.359
same,glycan array binding signal (z-score),[33],0.088
same,glycan array binding signal (z-score),[34],-0.787
same,glycan array binding signal (z-score),[35],-0.128
same,glycan array binding signal (z-score),[36],0.06
same,glycan array binding signal (z-score),[37],-0.732
same,glycan array binding signal (z-score),[38],0.092
same,glycan array binding signal (z-score),[39],-0.482
same,glycan array binding signal (z-score),[40],-0.609
same,glycan array binding signal (z-score),[41],-0.437
same,glycan array binding signal (z-score),[42],-0.518
same,glycan array binding signal (z-score),[43],0.699
same,glycan array binding signal (z-score),[44],-0.286
same,glycan array binding signal (z-score),[45],-0.582

# Rewritten bar-delimited: entries from further up
binder | measurement | setting | value
BabA (Helicobacter pylori), O52269_HELPY (protein) AEDDGFYMSAGYQIGEAAQMVKNTKGIQELSDNYENLSNLLTRYSTLNTLIKLSADPSAVNAARENLGASAKNLIGDTKNSPAYQAVLLAINAAVGFWNVVGYVTQCGGNANGQKSTSSTTIFNNEPGYRSTSITCSLNGHMPGYYGPMSIENFKKLNEAYQILQTALKNGLPALKENNGTVNVTYSYTCSGEGNDNCSLQTTGVTNQNNGTKTETQTIDGKSVTTTISSKVVDSQ | glycan array binding signal (z-score) | [31] | 0.225
same | glycan array binding signal (z-score) | [32] | -0.359
same | glycan array binding signal (z-score) | [33] | 0.088
